Values from PubChem BioAssay AID652272 (Drosophila RNAi Screening Center, 2013)

Purpose: 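Genome-wide knock-down search for components of Hedgehog signalling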 (primary screen)
System: Drosophila clone 8 (Cl8) cells
Reagent: long dsRNA against Drosophila genes
Measurement: 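Firefly light from a Hedgehog-responsive ptc promoter reporter and Renilla reference light, both read on a plate reader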
Scale: firefly Hh reporter signal: higher = more ptc reporter light; Renilla reference signal: higher = more Renilla control light
Hit rule: 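Hit when the z-score averaged over two replicates is under -2 or over +3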
Calls: active = hit: reporter lowered or raised; inactive = not a hit
In all, the deposit lists about 21,000 reagents; this is an unselected part of those with a known target gene and a result. Over the whole deposit, 503 (2.4%) were called active. 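Raw plate light values, not normalised; calls rest on replicate z-scores that were not deposited; hits include reporter decreases as well as increases.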 Reagents against one gene are numbered here. No sequences are given here. Not stated in the record: the amount of reagent, the time to read-out.

Against Acp36DE, the values are firefly Hh reporter signal, replicate 1 = 1.18e5; firefly Hh reporter signal, replicate 2 = 68992; Renilla reference signal, replicate 1 = 2688; Renilla reference signal, replicate 2 = 5442; inactive. Knock-down of mRpL44 came out at: firefly Hh reporter signal, replicate 1 = 1.29e5; firefly Hh reporter signal, replicate 2 = 98692; Renilla reference signal, replicate 1 = 4281; Renilla reference signal, replicate 2 = 3429; inactive. Silencing of Zip89B gave: firefly Hh reporter signal, replicate 1 = 70592; firefly Hh reporter signal, replicate 2 = 63526; Renilla reference signal, replicate 1 = 2640; Renilla reference signal, replicate 2 = 1842; inactive. Against Ns1 the deposit lists firefly Hh reporter signal, replicate 1 = 49873; firefly Hh reporter signal, replicate 2 = 54512; Renilla reference signal, replicate 1 = 1605; Renilla reference signal, replicate 2 = 1989; inactive. Against Ref2, the entry reads firefly Hh reporter signal, replicate 1 = 76760; firefly Hh reporter signal, replicate 2 = 48688; Renilla reference signal, replicate 1 = 2192; Renilla reference signal, replicate 2 = 4618; inactive. wntD gave firefly Hh reporter signal, replicate 1 = 1.27e5; firefly Hh reporter signal, replicate 2 = 97852; Renilla reference signal, replicate 1 = 3531; Renilla reference signal, replicate 2 = 2109; inactive.

Against CG14329, the entry reads firefly Hh reporter signal, replicate 1 = 69547; firefly Hh reporter signal, replicate 2 = 68928; Renilla reference signal, replicate 1 = 2528; Renilla reference signal, replicate 2 = 1042; inactive. For CG32568, the values are firefly Hh reporter signal, replicate 1 = 56967; firefly Hh reporter signal, replicate 2 = 1.22e5; Renilla reference signal, replicate 1 = 1644; Renilla reference signal, replicate 2 = 5356; inactive. CG13392 gave firefly Hh reporter signal, replicate 1 = 94304; firefly Hh reporter signal, replicate 2 = 73757; Renilla reference signal, replicate 1 = 2676; Renilla reference signal, replicate 2 = 5538; inactive. After knock-down of CG34144 (retired record) #1 the results were firefly Hh reporter signal, replicate 1 = 5.83e5; firefly Hh reporter signal, replicate 2 = 1.67e5; Renilla reference signal, replicate 1 = 34140; Renilla reference signal, replicate 2 = 4539; inactive. After knock-down of CG34144 (retired record) #2 the results were firefly Hh reporter signal, replicate 1 = 72145; firefly Hh reporter signal, replicate 2 = 1.42e5; Renilla reference signal, replicate 1 = 1079; Renilla reference signal, replicate 2 = 6133; inactive. Knock-down of CG34144 (retired record) #3 gave: firefly Hh reporter signal, replicate 1 = 76832; firefly Hh reporter signal, replicate 2 = 2.01e5; Renilla reference signal, replicate 1 = 2594; Renilla reference signal, replicate 2 = 7636; inactive.

Naa80 showed firefly Hh reporter signal, replicate 1 = 59530; firefly Hh reporter signal, replicate 2 = 92932; Renilla reference signal, replicate 1 = 1798; Renilla reference signal, replicate 2 = 2854; inactive. CG13793 scored firefly Hh reporter signal, replicate 1 = 94050; firefly Hh reporter signal, replicate 2 = 52244; Renilla reference signal, replicate 1 = 1555; Renilla reference signal, replicate 2 = 5488; inactive. Against CG2129 the deposit lists firefly Hh reporter signal, replicate 1 = 90363; firefly Hh reporter signal, replicate 2 = 97677; Renilla reference signal, replicate 1 = 2312; Renilla reference signal, replicate 2 = 2624; inactive. For grau the deposit lists firefly Hh reporter signal, replicate 1 = 69027; firefly Hh reporter signal, replicate 2 = 61724; Renilla reference signal, replicate 1 = 1766; Renilla reference signal, replicate 2 = 5635; inactive. Silencing of CG43610 came out at: firefly Hh reporter signal, replicate 1 = 5.27e5; firefly Hh reporter signal, replicate 2 = 1.87e5; Renilla reference signal, replicate 1 = 24977; Renilla reference signal, replicate 2 = 7184; inactive. Against CG33288, the values are firefly Hh reporter signal, replicate 1 = 2.40e5; Renilla reference signal, replicate 1 = 4650; inactive.

After knock-down of ttv the results were firefly Hh reporter signal, replicate 1 = 1.22e5; firefly Hh reporter signal, replicate 2 = 95648; Renilla reference signal, replicate 1 = 4784; Renilla reference signal, replicate 2 = 3300; inactive. Against alphaTub85E, the values are firefly Hh reporter signal, replicate 1 = 38963; firefly Hh reporter signal, replicate 2 = 1.00e5; Renilla reference signal, replicate 1 = 1304; Renilla reference signal, replicate 2 = 2269; inactive. After knock-down of Drp1 the results were firefly Hh reporter signal, replicate 1 = 75467; firefly Hh reporter signal, replicate 2 = 64224; Renilla reference signal, replicate 1 = 3212; Renilla reference signal, replicate 2 = 2628; inactive. hang #1 scored firefly Hh reporter signal, replicate 1 = 63129; firefly Hh reporter signal, replicate 2 = 35412; Renilla reference signal, replicate 1 = 1330; Renilla reference signal, replicate 2 = 786; inactive. hang #2 gave firefly Hh reporter signal, replicate 1 = 43377; firefly Hh reporter signal, replicate 2 = 1.33e5; Renilla reference signal, replicate 1 = 1377; Renilla reference signal, replicate 2 = 5750; inactive. CG9109 scored firefly Hh reporter signal, replicate 1 = 87472; firefly Hh reporter signal, replicate 2 = 48864; Renilla reference signal, replicate 1 = 3845; Renilla reference signal, replicate 2 = 2054; inactive.

Silencing of Parp16 gave: firefly Hh reporter signal, replicate 1 = 1.04e5; firefly Hh reporter signal, replicate 2 = 51160; Renilla reference signal, replicate 1 = 2688; Renilla reference signal, replicate 2 = 3704; inactive. Silencing of daed came out at: firefly Hh reporter signal, replicate 1 = 12201; firefly Hh reporter signal, replicate 2 = 56786; Renilla reference signal, replicate 1 = 852; Renilla reference signal, replicate 2 = 2123; inactive. For CG11581, the entry reads firefly Hh reporter signal, replicate 1 = 83976; firefly Hh reporter signal, replicate 2 = 2.46e5; Renilla reference signal, replicate 1 = 2280; Renilla reference signal, replicate 2 = 9962; inactive.

Just “Renilla reference signal, replicate 2”, for 4 of the entries above:
Drp1	2628
hang #1	786
hang #2	5750
CG9109	2054
